Data reported in paper PMC2715101, “Dimerization of Translationally Controlled Tumor Protein Is Essential For Its Cytokine-Like Activity” (PLoS ONE, 2009).
Results are given in words; binding and its absence hold for the method and conditions named. Values belong to the binder of their own block, whether it stands above or below them.

Key:
[1] = molecular target: Del-C112TCTP (residues 1-112) (rat) (UniProt P63029); test: non-reducing SDS-PAGE; purified proteins boiled with or without β-ME, 15% gel, coomassie brilliant blue; dimer by intermolecular disulfide bond; both purified
[2] = molecular target: T1, Del-N35TCTP (residues 35-172) (rat) (UniProt P63029); test: cross-linking; sulfhydryl crosslinkers BMOE (five-fold molar excess, 2 h) or BM(PEO)3 (five-fold molar excess, 1 h), room temperature, proteins first reduced with 20 mM DTT; each protein alone and their 1/2:1/2 molar mixture; reducing SDS-PAGE; both purified
T1 sequence: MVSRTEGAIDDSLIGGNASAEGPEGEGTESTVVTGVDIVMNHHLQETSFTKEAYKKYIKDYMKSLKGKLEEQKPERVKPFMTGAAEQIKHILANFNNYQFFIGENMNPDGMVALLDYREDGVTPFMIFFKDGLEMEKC

- binding [1]: no binding
B1: Del-C112TCTP (residues 1-112) (domain or fragment, UniProt P63029 1-112)
chain: MIIYRDLISHDELFSDIYKIREIADGLCLEVEGKMVSRTEGAIDDSLIGGNASAEGPEGEGTESTVVTGVDIVMNHHLQETSFTKEAYKKYIKDYMKSLKGKLEEQKPERVK

- binding [2]: no binding
B2: rat recombinant TCTP (RrTCTP) (protein, UniProt P63029 1-172)
chain: MIIYRDLISHDELFSDIYKIREIADGLCLEVEGKMVSRTEGAIDDSLIGGNASAEGPEGEGTESTVVTGVDIVMNHHLQETSFTKEAYKKYIKDYMKSLKGKLEEQKPERVKPFMTGAAEQIKHILANFNNYQFFIGENMNPDGMVALLDYREDGVTPFMIFFKDGLEMEKC
